Patent US20230310702A1 (Success Bio-Tech Co., Ltd., priority 2020, published 2023)

Assay: general procedure: Fmoc solid-phase peptide synthesis; Rink Amide-MBHA Resin; TBTU/HOBt/NMM
Conditions: whole synthesis, scale of the general procedure 1 g resin

Q: With “AC-Arg-Ala-Asp-Ala-Arg-Ala-Asp-Ala-Arg-Ala-Asp-Ala-Arg-Ala-Asp-Ala- amide” as the substance, how does the difficulty met read?
A: repeated feeding is usually required, hence the yield reduces, also resulting in complex by-products
